About 18,000 (4.4%) of roughly 410,000 compounds were called active. This list was built around the results that the source calls inconclusive (neither active nor inactive); the mix of calls is not that of the screen. Rule as the data show it: active = activity change below about -60%; inconclusive = no clear call, values can overlap the other calls; inactive = above about -39%.
test: qHTS Assay for inhibitors of the human cytomegalovirus (HCMV); conditions: HFF cells, HCMV-luciferase reporter, 72 h; at 57.5 µM; active compounds read low
Method in brief: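 Luciferase read-out from HCMV-luciferase-infected HFFs (MOI 1 PFU/cell) 72 h post infection at 37C; compounds added after 16 h cell attachment; activity normalized between buffer-only basal and Salinomycin (10uM) inhibitor controls.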
% is scaled to controls: 0 for no effect and ±100 for the full control effect.

| Structure (SMILES) | activity change, negative = inhibition |
| --- | --- |
| Cc1nn(CC(=O)N(C)Cc2ccccc2)c(=O)c2cccn12 | inconclusive: -40.3% |
| CCOc1cc(CNCCc2ccc(S(N)(=O)=O)cc2)cc(Cl)c1OCc1ccccc1 | active: -60.5% |
| COc1cc(C(NC=O)C(=O)Nc2c(C)cccc2C)ccc1O (stereo not given) | inconclusive: 0% |
| CCc1ccccc1N(C)C(=O)c1cn(-c2cccc(OC)c2)c(=O)c2ccccc12 | inconclusive: -52.5% |
| CCOC(=O)N1CCN(CC(O)c2ccccc2)CC1 (stereo not given) | inconclusive: -45.5% |
| CCN(CC)CCN(C(=O)c1cc2c(ccc3ccccc32)oc1=O)c1nc2cc3c(cc2s1)OCCO3 | active: -98.3% |
| Cc1ccc(C)c(Cn2c(=O)n(CCC(=O)NCc3ccco3)c(=O)c3ccccc32)c1 | inconclusive: -41.8% |
| Cc1ccc(C(=O)NN=C2CCCCCC2)s1 | inconclusive: -41.8% |
| O=C(Nc1ccc(F)cc1)C(c1cc2ccccc2o1)N1CCN(c2ccncc2)CC1 (stereo not given) | inactive: -24% |
| O=C1C(=C2CCc3ccccc32)Cc2ccccc21 | inactive: 99% |
| Cc1cccc(C(=O)Nc2ccccc2NC(=O)c2cccc(C)c2)c1 | active: -61.5% |
| COc1ccc2c(Sc3ccccc3)c(C(=O)NCCCN3CCCCC3)[nH]c2c1 | inconclusive: -43.5% |
| CCOc1ccc(Cn2c(=O)sc3ccccc32)cc1OC | inconclusive: -41.8% |
| O=C(NC1CCCC1)C(c1cccs1)N(C(=O)c1ccco1)c1ccc2c(c1)OCCO2 (stereo not given) | active: -61.9% |
| CCOc1cc(CNC(C)(C)C)ccc1OCC(=O)Nc1cccc(C(F)(F)F)c1 | inactive: -20.3% |
| CCCCCCCN1C2=NCCCN2c2ccccc21 | inconclusive: -49.9% |
| O=C(Cn1c(=O)oc2ccccc21)Nc1nc(-c2ccc(Br)cc2)cs1 | active: -60.5% |
| COc1ccc(NC(=S)NCCN2CCC(C)CC2)cc1 | inconclusive: -49.7% |
| CN1CCN(C(=O)CCCN2C(=O)/C(=C/c3ccccc3)SC2=S)CC1 | active: -94.2% |
| CC(=O)N/C(=C\c1ccccc1)C(=O)Nc1ccc(O)cc1 | inconclusive: -59.4% |
| O=C1/C(=C\c2ccccc2)CN(C(=O)CCN2CCCCC2)C/C1=C/c1ccccc1 | active: -100% |
| C=CCn1cc(CN2CCC(C(=O)Nc3ccc(Oc4cccnc4)cc3)CC2)c(C)n1 | inconclusive: -57.7% |

| Structure (SMILES) | activity change, negative = inhibition |
| --- | --- |
| Cc1[nH]n(-c2ccccc2)c(=O)c1/C=N/NC(=O)c1ccoc1C | active: -99.7% |
| O=C(NCc1ccccc1F)C1CCCN(S(=O)(=O)c2ccc(-n3cnnn3)cc2)C1 (stereo not given) | active: -76.7% |
| O=C(O)CCSc1nnc(COc2cccc3ccccc23)n1-c1cccc(Cl)c1 | active: -99% |
| O=C(c1ccc(Cl)cc1)N1CCN(c2ccnc3cc(Cl)ccc23)CC1 | inconclusive: -58.3% |
| C=CCN=C1S/C(=C/c2ccc([N+](=O)[O-])cc2)C(=O)N1CC=C | inactive: -15.6% |
| COc1ccc(C2CC(c3c(O)n(CCc4ccccc4)c(=O)[nH]c3=O)=NN2)cc1OC (stereo not given) | inactive: -18.3% |
| O=C(COC(=O)c1ccc(S(=O)(=O)N2CCOCC2)cc1)Nc1nc(-c2ccccc2)cs1 | inactive: 2.09% |
| c1ccc(C2=NNC(c3ccco3)=Nc3ccccc32)cc1 | inconclusive: -58.9% |
| COc1ccc(-c2nnc(NC(=O)c3ccc(F)cc3)o2)cc1 | inconclusive: -43.7% |
| COc1ccc(N2C(=O)c3cccc4cccc(c34)C2=O)cc1 | inconclusive: -41.6% |
| Cc1[nH]c2ccccc2c1CC(=O)Nc1ccc(N(C)c2cccnc2)c(-c2cccc(Cl)c2)c1 | inactive: -0.403% |
| COc1ccc(CCNC(=O)c2cc(-c3cc(Cl)ccc3O)n[nH]2)cc1OC | inconclusive: -41% |
| O=C(COC(=O)Cn1cnc2ccccc2c1=O)Nc1ccccc1Sc1ccc(Cl)cc1 | inconclusive: -50.8% |
| Brc1ccc(-c2nc(-c3cccnc3)no2)o1 | inactive: 94.5% |
| O=C(Cc1c(Cl)cccc1Cl)OCC(=O)N1CCc2ccccc2C1 | active: -101% |
| COc1ccccc1CCC(=O)NNC(=O)c1cccs1 | inactive: 158% |
| C/C(=N\N1CCN(c2ccccc2)CC1)c1cccs1 | inconclusive: -42.1% |
| NS(=O)(=O)c1ccc(CCNC(=O)Cn2c(-c3cccs3)cc3ccccc32)cc1 | inactive: 13.7% |
| CCOC(=O)N1CCC(NC(=O)c2cc(COc3c(C)cccc3C)on2)CC1 | inconclusive: -59.9% |
| Cc1ccc(-c2onc3ccc(C=O)cc23)cc1 | inactive: 19.2% |
| COc1cc(/C=N/NC(=O)C(=O)/C=C2\NC(C)(C)Cc3ccccc32)ccc1O | inconclusive: -47.2% |
| Cc1cccc(C)c1NC(=O)C(CCc1ccccc1)N1CCN(C)CC1 (stereo not given) | inconclusive: -41.2% |

2 of the compounds above, with bars between the fields:
Structure (SMILES) | activity change, negative = inhibition
CCOC(=O)N1CCC(NC(=O)c2cc(COc3c(C)cccc3C)on2)CC1 | inconclusive: -59.9%
Cc1ccc(-c2onc3ccc(C=O)cc23)cc1 | inactive: 19.2%

(further entries)

| Structure (SMILES) | activity change, negative = inhibition |
| --- | --- |
| COc1ccc(S(=O)(=O)N2CCOCC2)cc1C(=O)NCc1ccccc1CN1CCCC1 | inconclusive: -40.6% |
| Cc1nc(N)nc(N)c1/C=C/C(C)(C)c1ccc(Cl)cc1 | active: -109% |
| Cc1onc(-c2ccccc2)c1C(=O)c1ccccc1 | inactive: 3.52% |
| COc1cc2c(cc1OC)CN(C1CC(=O)N(c3c(C)cccc3C)C1=O)CC2 (stereo not given) | inactive: 84.9% |
| Cc1ccccc1OCC(=O)Nc1ccc2nc(SCC(=O)N3CCc4ccccc43)sc2c1 | inactive: -3.86% |
| O=C(NCCN1CCCCC1)/C(=C/c1ccco1)NC(=O)c1ccccc1 | inactive: -6.58% |
| O=C(O)Cn1cc(C(=O)C(F)(F)F)c2ccccc21 | inactive: -16.6% |
| CN(C)c1cccc(Nc2cc3c(cn2)cc(-c2cnn(C)c2)n3Cc2ccccc2)c1 | inconclusive: -55.5% |
| CC(Oc1ccc2c(-c3ccccc3)cc(=O)oc2c1)C(=O)NC(Cc1c[nH]c2ccc(O)cc12)C(=O)O (stereo not given) | active: -76.7% |
| Cc1ccc2nc(NC(=O)/C=C/c3ccc4c(c3)OCO4)sc2c1 | inconclusive: -44.2% |
| CC(=O)Nc1ccc(OC(=O)C(CCS(C)(=O)=O)N2C(=O)c3ccccc3C2=O)cc1 (stereo not given) | inactive: 13.7% |
| N=c1oc2ccc3ccccc3c2cc1C(N)=S | inconclusive: -41.3% |
| O=C(NCc1ccc(F)cc1)c1cccc2c1C(=O)c1ccc(N3CCC(N4CCCCC4)CC3)cc1S2(=O)=O | inconclusive: -47.8% |
| Cc1cccc(N2CCN(S(=O)(=O)c3cc(-c4cc(C)no4)ccc3C)CC2C)c1 (stereo not given) | inconclusive: -54.4% |
| NS(=O)(=O)c1ccc(CCNC(=S)Nc2ccc(F)cc2)cc1 | active: -60.6% |
| COc1ccc(NC(=O)C/C(C)=N/NC(=O)C(=O)NC2CCCCC2)c(OC)c1 | inconclusive: -53.8% |
| CCc1nnc(NC(=O)c2ccc(S(=O)(=O)N(C)c3ccccc3)cc2)o1 | active: -74.5% |
| CCOC(=O)c1sc(-c2ccccc2)cc1NC(=O)Nc1ccccc1 | inactive: -36.3% |
| COc1ccc(CCC(=O)NCCS(=O)(=O)N2CCN(c3ccc(OC)cc3)CC2)cc1 | inconclusive: -40.6% |
| O=C(NCCc1ccccc1)C1c2ccccc2C(=O)N1Cc1cccs1 (stereo not given) | inconclusive: -52.8% |
| Cc1cc(C)cc(NS(=O)(=O)c2ccc(N3CCCCS3(=O)=O)cc2)c1 | inconclusive: -46.1% |
| CCCN(CC(=O)Nc1ccccc1C)C(=O)c1cccc(S(=O)(=O)N2CCc3ccccc3C2)c1 | inactive: -13.2% |

Quoted from the results shown, four compounds:

| Structure (SMILES) | activity change, negative = inhibition |
| --- | --- |
| O=C(c1ccc(Cl)cc1)N1CCN(c2ccnc3cc(Cl)ccc23)CC1 | inconclusive: -58.3% |
| C=CCN=C1S/C(=C/c2ccc([N+](=O)[O-])cc2)C(=O)N1CC=C | inactive: -15.6% |
| COc1ccc(C2CC(c3c(O)n(CCc4ccccc4)c(=O)[nH]c3=O)=NN2)cc1OC (stereo not given) | inactive: -18.3% |
| O=C(COC(=O)c1ccc(S(=O)(=O)N2CCOCC2)cc1)Nc1nc(-c2ccccc2)cs1 | inactive: 2.09% |

(further entries)

| Structure (SMILES) | activity change, negative = inhibition |
| --- | --- |
| CC(=O)c1ccc(NC(=O)Nc2ccc(Br)cc2C)cc1 | inconclusive: -41.9% |
| CC1(C(=O)Nc2cccc(C#N)c2)CCN1C(=O)c1ccccc1CCc1ccccc1 (stereo not given) | inconclusive: -43.4% |
| C=CCNC(=S)Nc1ccc(F)cc1F | inconclusive: -53.5% |
| Cc1ccc(O)c(C2=Nc3ccccc3N=C(c3cccs3)C2)c1 | inconclusive: -43.8% |
| COc1ccc(S(=O)(=O)N2CCc3cc(OC)c(OC)cc3C2)cc1 | inactive: -31.3% |
| Cn1cc(CN2CCC(n3nccc3NC(=O)c3ccc4c(c3)OCO4)CC2)cn1 | inactive: -15.7% |
| CCC(=O)N1CCN(c2ccc(Cl)cc2NC(=O)c2ccc([N+](=O)[O-])o2)CC1 | inconclusive: -53% |
| CN(Cc1ccc(F)cc1)S(=O)(=O)c1nnc(NC(=O)c2ccccc2Cl)s1 | inconclusive: 0% |
| CCc1nc(-c2cc(S(=O)(=O)N3CCN(c4ccccc4F)CC3)ccc2OC)no1 | inconclusive: -52.4% |
| CCCN1C(C(=O)c2ccccc2)=C(OC(=O)c2ccc(OC)cc2)c2ccccc2S1(=O)=O | inconclusive: -43.8% |
| CCC(=O)NC(c1ccccc1Cl)c1c(O)ccc2ccccc12 (stereo not given) | inconclusive: -46.6% |
| C[C@@]12C(=O)N(c3cccc(Br)c3)C(=O)N1[C@H](c1ccc(Cl)cc1)[C@@H]1C(=O)N(C3CCCCC3)C(=O)[C@@H]12 | inconclusive: -40.3% |
| COc1ccc(NC(=O)COc2ccc(C)cc2)c([N+](=O)[O-])c1 | inconclusive: -40.1% |
| CC(C)(C)c1cnnn1-c1ccc(/C=N/Nc2ccc([N+](=O)[O-])cc2)cc1 | inconclusive: -43.7% |
| CN(C)c1ccc(C(=O)N/N=C/C23CC[C@@H](O)CC2(O)CC[C@@H]2[C@@H]3CCC3(C)C(C4=CC(=O)OC4)CCC23O)cc1 (stereo not given in full) | active: -98.6% |
| Cc1ccc(S(=O)(=O)Nc2cc3c(cc2C)n(C)c(=O)c(=O)n3C)c(C)c1 | inconclusive: -56.4% |
| CC(=O)OC(COc1cccc(C)c1)Cn1cnc2ccccc21 (stereo not given) | inconclusive: -46.5% |
| CCC1(c2ccccc2)C(=O)N=C(N)N(C#N)C1=O (stereo not given) | inconclusive: -45% |
| CCCCn1c(N)c(N(CCOC)C(=O)c2cc(-c3ccncc3)nc3ccccc23)c(=O)[nH]c1=O | inconclusive: -40.3% |

From PubChem BioAssay AID1259415 (National Center for Advancing Translational Sciences (NCATS), 2018)
